Test results as given in patent US20100256014A1, “NOVEL AS160-LIKE PROTEIN, TEST SYSTEMS, METHODS AND USES INVOLVING IT FOR THE IDENTIFICATION OF DIABETES TYPE 2 THERAPEUTICS” (priority 2007, published 2010).
At least one structure is not confirmed: it was looked up by name or label, or the drawing left a doubt.

Columns and labels:
L6-GLUT4myc cells = test: Uptake of 2-deoxyglucose in L6-GLUT4myc cells with tet-inducible isoform2 of AS160; assay type: cell-based, rat; conditions: for effect on basal glucose uptake: isoform2 induced
Procedure: For all examples […]T4myc cells containing isoform2 of AS160 were grown in MEMα (PAN) supplemented with 10% fetal calf serum (FCS) (PAA, tet-free), 2 μg/ml blasticidin (Calbiochem), 0.5 μg/ml puromycin (InvivoGen), 200 μg/ml hygromycin (Invitrogen). Expression of isoform2 of AS160 was induced with 1 μg/ml doxycyclin (Sigma). L6-wildtype (wt) (ATCC: CRL-1458) cells were grown in MEMα+GlutaMax (Gibco) supplemented with 10% FCS (PAA, tet-free) and 1% penicillin/streptomycin (PAA). […]T4myc cells were grown in MEMα+GlutaMax (Gibco) supplemented with 10% FCS (PAA, tet-free), 1% penicillin/streptomycin (PAA) and 2 μg/ml blasticidin (Calbiochem). All cells were grown at 37° C. and 5% CO2. […]T4myc cells containing isoform2 of AS160 were incubated in starve medium (MEMα) 3-4 hours prior to each experiment. To examine glucose uptake of the cells, the respective cells were plated in 96 well Cytostar-T scintillating microplates (Amersham). After 48 hours cells were serum-starved (3-4 hours) and treated with inhibitors as indicated. Uptake of 2-deoxyglucose (0.01 MBq per well, Amersham) was performed as already described (Voss et al., 2005). Nonspecific uptake was determined in the presence of 40 μM cytochalasin B (Calbiochem). This value was subtracted from all other values. Measurement occurred in a Wallac Microbeta counter (Perkin Elmer). Uptake of 2-deoxyglucose is presented as counts per […] (cpm).

AKT (Ser 473) = test: Western blot of AKT phosphorylation (Ser 473); assay type: cell-based, rat; conditions: pre-incubation 1 hour (wortmannin 200 nM, AKT inhibitor Calb. 50 μM), then insulin 10 nM 20 minutes
Procedure: For Western blot analysis proteins were separated on SDS-PAGE gels (4-12% resolving gel, Invitrogen), transferred to PVDF membranes (Roche) and blocked with Roti-Block® (Roth) for 1 hour. Membranes were incubated with primary antibodies overnight. The anti-AS160 antibody was from Upstate. Membranes were washed in TBST and incubated with the appropriate secondary horseradish peroxidase conjugated antibody (Santa Cruz). Immunoreactive bands were visualized with LumiLight (Roche) and detected with Lumi-lmager (Böhringer Ingelheim).
In order to examine tetracycline- and insulin-dependent expression of isoform2 of AS160 protein in L6-GLUT4myc cells containing AS160-like, a western blot analysis was performed. The expression of AS160-like protein was induced with 1 μg/ml doxycyclin for 48 hours as described above. Subsequently, the cells were stimulated with insulin (5 nM to 50 nM; Sanofi-Aventis) for 20 minutes. Cell extracts were prepared, separated via SDS-PAGE and transferred to a PVDF membrane as described above.
The AKT inhibitor Calb. had no effect on the phosphorylation of AKT (Ser 473) (FIG. 11A). […] Phosphorylation of AKT on Ser 473 was detected with a phospho-specific antibody from Biosource (Cat No.: 44-621G).

[1] = metformin 800 μM overnight, high glucose plus insulin conditions

| SMILES | effect on glucose uptake after stimulation with 5, 10 and 50 nM insulin (L6-GLUT4myc cells; [1]) | effect on basal glucose uptake (L6-GLUT4myc cells; [1]) | insulin-sensitizing effect on glucose uptake (L6-GLUT4myc cells; metformin 800 μM overnight, normal conditions, additional insulin stimulation) | effect on basal glucose uptake (L6-GLUT4myc cells; metformin 800 μM overnight, normal conditions) | effect of expression of isoform 2 of AS160 on stimulated glucose uptake (L6-GLUT4myc cells; with vs without isoform 2 of AS160) | effect on insulin-stimulated uptake of glucose (L6-GLUT4myc cells; L6-GLUT4myc cells expressing isoform 2 of AS160, wortmannin plus insulin) | effect on glucose uptake of AICAR stimulated cells (L6-GLUT4myc cells; wortmannin plus AICAR) | effect on insulin-stimulated phosphorylation of AKT (Ser 473) (AKT (Ser 473)) |
| --- | --- | --- | --- | --- | --- | --- | --- | --- |
| CN(C)C(=N)N=C(N)N [metformin, dimethylbiguanide] | significantly increased | significantly increased basal glucose uptake | no sensitizing effect | significantly enhanced basal glucose uptake | no increasing effect |  |  |  |
| COC[C@H]1OC(=O)c2coc3c2[C@@]1(C)C1=C(C3=O)[C@@H]2CCC(=O)[C@@]2(C)C[C@H]1OC(C)=O [wortmannin, Wortmannin] |  |  |  |  |  | completely abrogate | remained nearly unchanged | completely abrogated |
